{"source": "patent US20140243194A1", "about": "“Fungicidal substituted 1--1H-[1,2,4]triazole compounds” (BASF SE, priority 2011, published 2014)", "key": {"[1]": {"tested_on": "Septoria tritici", "test": "Preventative control of leaf blotch on wheat caused by Septoria tritici (Septtr P1)", "assay_type": "in vivo", "conditions": "300 ppm spray; wheat inoculated next day; untreated plants 90% infected"}, "[2]": {"tested_on": "Alternaria solani", "test": "Preventative fungicidal control of early blight on tomatoes (Alternaria solani) (Alteso P1)", "assay_type": "in vivo", "conditions": "300 ppm spray; tomato inoculated next day; untreated plants 80% infected"}}, "note": "Some of these results come from one statement about several compounds together.", "data": [{"compound": "C#CCOC(Cn1cncn1)(c1ccc(Oc2ccc(Cl)cc2)cc1Cl)C(C)C", "note": "(centres unmarked) [I-4, 1-[2-[2-chloro-4-(4-chlorophenoxy)phenyl]-3-methyl-2-prop-2-ynoxy-butyl]-1,2,4-triazole]", "values": [{"measurement": "infection (% diseased leaf area) Septtr P1", "setting": "[1]", "value": "less than or equal to 10%"}, {"measurement": "infection (% diseased leaf area) Alteso P1", "setting": "[2]", "value": "less than or equal to 5%"}]}]}
